Results: PubChem BioAssay AID1347075 (National Center for Advancing Translational Sciences (NCATS), 2019)
The whole screen tested about 400,000 compounds, of which about 5,500 (1.4%) were called active. This list was built around the results that the source calls inconclusive (neither active nor inactive); the mix of calls is not that of the screen. Calls come from the whole dose curve; as a rule, active = well fitted cell-killing curve with a large enough effect; inconclusive = small, poorly fitted or top-dose-only effect, or effect the other way; inactive = flat fitted curve, though single readings scatter. Potencies of inconclusive entries are doubtful fits and often do not repeat.

Test: qHTS assay for MDR1-selective chemotherapeutics: Primary screen using the parental adenocarcinoma cell KB-3-1; note: nearly all actives have a fitted effect of over 60% in size
Details: KB-3-1 viability, CellTiter-Glo ATP luminescence, 72 h; activity change, negative = cytotoxic: at 46.1 µM (top of the series)
Method in brief: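 Here the drug-naive KB-3-1 line serves as comparator for MDR sub-line selectivity; cells received compound titrations, 72 h at 37 °C, then CellTiter-Glo readout.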
% is set by controls: 0 for no effect and ±100 for the full control effect; potency is the fitted concentration of half-maximal effect.

Compound | activity change, negative = cytotoxic | Potency
CCOC(=O)c1cc(C#N)c(Oc2ccccc2)nc1-c1ccccc1 | inactive: -18.4% | 
CCN(CC)S(=O)(=O)c1ccc(N2CCCCC2)c(C(=O)Nc2ccccc2N2CCOCC2)c1 |  | inconclusive: 23.1 µM [cytotoxic, single point]
Oc1c(C(Nc2nccs2)c2ccc(C(F)(F)F)cc2)ccc2cccnc12 (configuration not stated) |  | inconclusive: 8.2 µM [cytotoxic, partial curve]
O=C(Nc1cccc(-c2nc3ncccc3o2)c1)c1ccc(-c2cccc(Cl)c2Cl)o1 | inactive: -2.33% | 
COc1ccc(N2CCN(C(=O)C3CCCN(S(=O)(=O)c4ccc(F)cc4)C3)CC2)cc1 (configuration not stated) |  | inconclusive: 23.1 µM [cytotoxic, single point]
CCC(=O)Nc1cc(-c2nn(C)c(=O)c3ccccc23)ccc1N1CCCCC1 |  | inconclusive: 29.1 µM [cytotoxic, single point]
COc1cccc(/C=C/C(=C2\C(=O)N(c3ccccc3)N=C2C)c2ccc(Br)cc2)c1OC |  | inconclusive: 32.6 µM [cytotoxic, single point]
O=C(C[C@H]1C/C=C\C[C@H](NC(=O)OCC2c3ccccc3-c3ccccc32)C(=O)OC[C@H](Cc2ccccc2)NC1=O)N[C@H](CO)Cc1ccccc1 |  | inconclusive: 29.1 µM [cytotoxic, single point]
CC(=O)c1cc(-c2ccccc2)n(CC(=O)NC2CCCCCC2)c1C | inactive: 2.23% | 
CCc1nc2c(OCc3ccc(Cl)cc3)cccn2c1N(C=O)Cc1ccc(OC)cc1 |  | inconclusive: 29.1 µM [cytotoxic, single point]
C=C1CCC[C@]2(C)C[C@H]3OC(=O)C(CN(C)CC(OC)OC)[C@H]3CC12 (some centres not stated) |  | inconclusive: 29.1 µM [cytotoxic, single point]
COc1ccc(-c2csc3ncnc(N4CCN(c5ccc(OC)cc5)CC4)c23)cc1 |  | inconclusive: 29.1 µM [cytotoxic, single point]
CC(=O)NC12CC3CC(C1)CC(C(=O)NCc1ccc(C)cc1)(C3)C2 |  | inconclusive: 6.51 µM [rising, partial curve]
Cc1cccc(NS(=O)(=O)c2cccc(C(=O)N3CCCCCC3)c2)c1 | inactive: 4.31% | 
N/C(=N\NC(=O)c1sccc1OCc1ccc(Cl)cc1Cl)c1ccccn1 |  | inconclusive: 32.6 µM [cytotoxic, single point]
CNC(=O)c1ccc(Nc2nnc(-c3ccc(C)c(S(=O)(=O)NC(C)(C)C)c3)c3ccccc23)cc1 | inactive: 16% | 
Brc1ccc2c(c1)C(C1=NCCN1)c1ccccc1CS2 (configuration not stated) |  | inconclusive: 0.731 µM [cytotoxic, full curve, poor fit]

2 successive records already listed, quoted:
Compound | activity change, negative = cytotoxic | Potency
N/C(=N\NC(=O)c1sccc1OCc1ccc(Cl)cc1Cl)c1ccccn1 |  | inconclusive: 32.6 µM [cytotoxic, single point]
CNC(=O)c1ccc(Nc2nnc(-c3ccc(C)c(S(=O)(=O)NC(C)(C)C)c3)c3ccccc23)cc1 | inactive: 16% | 
